This is one part of the list. Many values rest on one well or one pass, so single values are uncertain.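 Cells were imaged in 1,536-well plates, and nuclei stained with an antibody against cleaved PARP were counted against all DNA-stained nuclei to give the apoptosis fraction. Screening doses were chosen to leave most cells alive, and resting and induced cleaved-PARP levels differ strongly between cell lines.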
The compounds below were run on WM1745 (assay: cleaved PARP positive nuclei fraction relative to DMSO control; melanoma cells; higher = more apoptosis). Conditions: library dose: low library concentration; 72 h.
For `Cc1cc(Nc2cc(N3CCN(C)CC3)nc(/C=C/c3ccccc3)n2)n[nH]1` + O=C(Oc1ccc([N+](=O)[O-])cc1)N1CCC(C(O)(c2ccc3c(c2)OCO3)c2ccc3c(c2)OCO3)CC1 [JZL184] (first compound 0.04 µM, partner dose 1 µM), the “cleaved PARP positive nuclei fraction” value was 104%.
In the case of `Cn1cnc2c(F)c(Nc3ccc(Br)cc3Cl)c(C(=O)NOCCO)cc21` [selumetinib] + N.N.[Cl][Pt][Cl] [cisplatin] (first compound 0.015 µM, partner dose 1.6 µM), the “cleaved PARP positive nuclei fraction” value is reported as 106%.
For `C[As](C)SC[C@H](NC(=O)CC[C@H](N)C(=O)O)C(=O)NCC(=O)O` [Darinaparsin] + COc1cc(N2CCC(N3CCN(C)CC3)CC2)ccc1Nc1ncc(Cl)c(Nc2ccccc2S(=O)(=O)C(C)C)n1 [NVP-TAE684] (first compound 0.4 µM, partner dose 0.08 µM), the “cleaved PARP positive nuclei fraction” value was 125%.
In the case of `CC1(C)CCC(c2ccc(Cl)cc2)=C(CN2CCN(c3ccc(C(=O)NS(=O)(=O)c4ccc(N[C@H](CCN5CCOCC5)CSc5ccccc5)c(S(=O)(=O)C(F)(F)F)c4)cc3)CC2)C1` + Cn1cc(C2=C(c3cn(C4CCN(Cc5ccccn5)CC4)c4ccccc34)C(=O)NC2=O)c2ccccc21 [Enzastaurin] (first compound 0.4 µM, partner dose 0.8 µM), the “cleaved PARP positive nuclei fraction” value is reported as 945%.
In the case of `NC(=O)c1ccc(N(C(N)=O)c2c(F)cccc2F)nc1-c1ccc(F)cc1F` + C[As](C)SC[C@H](NC(=O)CC[C@H](N)C(=O)O)C(=O)NCC(=O)O [Darinaparsin] (first compound 0.4 µM, partner dose 0.4 µM), the “cleaved PARP positive nuclei fraction” value is reported as 86.9%.

Source: the supplement of paper PMC4604168 (melanoma cell lines)
